# Among all 53,000 sequences or so, about 3,700 (7%) were called active.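 How the source made its calls: active means gene knockdowns whose robust z-score for IL-1 alpha signal is at least 2 or at most -2, so actives lie on both sides; inactive means the rest.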 The list shows a part of the results.
# Assay: Components of the Cytosolic LPS Sensing Pathway: Gene Identification via Genome-wide siRNA Screen;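 further: robust z of the log signal after scaling to non-targeting control siRNA wells of the plate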
# Details: RAW264.7 macrophages, IL-1a HTRF, actives lie on both sides, screened at 100 nM (by protocol), cells primed 5 h with Pam3CSK4 first
# Summary of the method: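 Three distinct siRNAs per gene were tested singly at 100 nM in RAW264.7 macrophages. Following Pam3CSK4 priming and 24 hour LipidA transfection, IL-1a secretion was read by HTRF.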
row,Sequence,z-score
1,CCAAUCAUGAUCUGGGCUCTT against Gng4,inactive: 1.46
2,GCAAGCUGAACUACUUGAGTT against Ern1,inactive: 0.425
3,GGUGAUCUGGACCAAGAUGTT against Lcp1,inactive: -0.52
4,GGAUGCACAUAUUCAAGCCTT against Ssh1,inactive: -0.138
5,GGAGCAGCGGGUUUAUUGUTT against Mfn2,inactive: 0.167
6,GGCUUUGAUCAGCAUGAGCTT against Pak4,active: -2.07
7,GGUUUGAGAAAUUGGACAUTT against Pou6f1,active: 3.72
8,GGAAUAUCGGACUUUUUCATT against Mis18bp1,inactive: 0.635
9,CCCUGACAGAUUAAUUUCATT against Zbed3,inactive: -0.558
10,GCAUUUAAAAUACACGGUGTT against Arg1,inactive: 0.264
11,GGCAUAGUUGCUGUUCUCUTT against Slc9a9,inactive: -0.871
12,CGGAGUGUACCAUCUACACTT against Agpat4,inactive: 0.193
13,GGCGGAAAUUGUGAAGAGGTT against Tle5,inactive: -0.497
14,CGCUUGCUCGGAUUGACAATT against Bpifb3,inactive: 0.688
15,AUGCGUUUGUCAUGAAUUUTT against Rnf182,inactive: -1.23
16,GGAGCUUAGUUACCCACAUTT against Drg2,inactive: -0.144
17,GGCAUAUCAGACAACAAGATT against Tcte1,inactive: -1.25
18,GGCGAAUGAAGGUUUCUGGTT against Pex11b,inactive: -0.581
19,GGACUUCUCAUCCUAUUUATT against Iah1,inactive: -0.638
20,GGGAGAGACUAACUUGUUUTT against Hpvc2,inactive: 0.0623
21,GGCUCAGACCCUGUACUAATT against Selenof,inactive: 1.77
22,GGAUCAGUAAAGCAAAAAUTT against Lsamp,inactive: -0.22
23,CCCAUGUAAGGAUGUGUCGTT against Frmd5,inactive: 0.761

# Rewritten bar-delimited: entries from further up.
row | Sequence | z-score
2 | GCAAGCUGAACUACUUGAGTT against Ern1 | inactive: 0.425
4 | GGAUGCACAUAUUCAAGCCTT against Ssh1 | inactive: -0.138
17 | GGCAUAUCAGACAACAAGATT against Tcte1 | inactive: -1.25

# Later entries:

row,Sequence,z-score
1,GGUAUUUGUGCCAAUUGCCTT against Ccr6,inactive: -0.302
2,GCCUCGUAUAGAGAAGUGATT against Gnat1,inactive: -1.91
3,GGAGAUCCAAGAGAAAUUUTT against Csf3r,inactive: 1.18
4,GGAAGAAACAUGUAUCAUGTT against Tff1,inactive: 0.556
5,GCAUAAUGACCAUGUCUGUTT against 1700001J03Rik,inactive: -0.337
6,GGCAAUUUCAGACAAGUAUTT against Grhl1,inactive: 0.892
7,GGUUUUAGAUAUUAACCUGTT against Hnrnpc,inactive: 0.659
8,GGGUAAUGCUGACUACAGGTT against BC055324,inactive: 0.579
9,GGUGAGACGUGCUUCAAAUTT against Smtnl2,inactive: 0.172
10,GGGCUCUGGUGGAUGAAUUTT against Cnpy2,inactive: 0.801
11,GCAUGAUGAUUCGUCAGACTT against Ero1a,inactive: 0.245
12,GGCCUCCUAAGAGGACUCATT against Dach1,inactive: -1.11
13,GGACAACAGAAGACCUGUUTT against Nhsl1,inactive: -0.611
14,GGUACAGUUAAAGAAUCUGTT against Ahsa2,inactive: 0.375
15,CCAAGAAGAGUUAUGUAAUTT against Depdc1a,inactive: -1.33
16,GGAGUUGGGUAUCAUUAAGTT against Gphb5,inactive: -0.152
17,GGUAAUUCAGUCUUAUACATT against Pcdhb21,active: 3.2
18,GGUUUAGCUGCAUUAAAAGTT against Lrrc27,inactive: 0.956
19,GGACAUGCUCUAUAAGAAGTT against Pabpc5,inactive: -0.642
20,GGCAUGUCUACACACCAUCTT against Ankra2,inactive: -0.106
21,GGCAAGAGACAGAAUGAUATT against Ppargc1a,inactive: -1.35
22,GGAAGUGAGGGAGAACAUCTT against Fchsd1,inactive: -1.56
23,GGAUGCUGUAACACUUUAUTT against Bcl6,active: 3.31

row,Sequence,z-score
1,GCAUUACUGAUUCUUUCUUTT against Vmn1r199,inactive: -0.771
2,GCCUCUUAAUGCUUUUGUATT against Sfxn1,inactive: -0.272
3,GGAAAUGUGGUAAUUCCGATT against Cd44,inactive: 0.256
4,GGACCUGUUUGAGCAGAGGTT against Eps8l2,inactive: 0.539
5,GGCAGAGUGCUGACUUCAUTT against Coq8a,active: 3.86
6,GCUGCCAUUUCGCCAAUCUTT against Mfap4,active: -2.65
7,GGAUGCAGCUAGAAUUUAATT against 4932438A13Rik,inactive: 1.04
8,GGAAUUGAAGGGUACUUAATT against Fam111a,inactive: -1.97
9,UGGCUAAACGCACCAAGAATT against Rpl37a,inactive: 1.11
10,GCUUCACCGAGUCAUCAUATT against Mdc1,inactive: -0.786
11,GGAAGAAAAAAUCGAUCUGTT against Myl1,inactive: 0.131
12,CGCAGUCGGUCAAGAACAATT against Snrpd2,inactive: -1.91
13,GGACUAGCAGUAAUAAAAGTT against Zdhhc9,active: -2.37
14,GGAAAUCUUUAUCUGACAGTT against Cbx3,inactive: -1.88
15,GGCAGAGGCAAAAGAACAATT against Mrps5,inactive: 1.78
16,GCGAUGUGCAUCGGAAUGCTT against Adprhl1,inactive: 1.46
17,GGUCAAUACUCGAGUGCCATT against Gstm3,inactive: -0.493
18,GGUGAUUCUCAUCUAAAUGTT against Mtdh,inactive: -0.389
19,GGUGCUGUUUAAAACACAGTT against Aurka,inactive: 1.25
20,CCUGACCAAUUGAGCUUCCTT against Rusc1,inactive: -0.59
21,GGGCAAACCAGUUAGCAGATT against Atxn2,inactive: 0.278
22,GGCAAUGUCUUUAAAAUACTT against Txndc8,inactive: -0.724
23,CCUGAACGCAGCAACAAACTT against 1700049L16Rik,inactive: -1.31

# At a glance, some entries already given.
row,Sequence,z-score
4,GGACCUGUUUGAGCAGAGGTT against Eps8l2,inactive: 0.539
5,GGCAGAGUGCUGACUUCAUTT against Coq8a,active: 3.86
